# Measurements reported in PubChem BioAssay AID1224830 (NIAID, 2016).
# Purpose: 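Host factors that control LPS-induced TNF expression in human macrophages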 (primary screen)
# System: human THP-1 monocytic leukaemia cells, TNF dual-luciferase reporter clone, PMA-differentiated to macrophage-like cells
# Reagent: siRNA pool against human genes, 50 nM
# Duration: LPS for 4 h, given about 3 days after siRNA transfection
# Treatment: bacterial LPS (TLR4 ligand), 10 ng/ml
# Measured: 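TNF firefly reporter luminescence divided by renilla, normalised to the plate median, then turned into a robust z-score for each replicate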
# Scale: TNF reporter robust z-score: higher = stronger TNF reporter response to LPS
# Rule for the call: 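a well is active when its z-score exceeds 2.8 or falls below -1.5; control wells carry no call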
# Shown is an unselected part of about 18,000 reagents. About 2,900 of them (16%) were called active. 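Calls are made per well; low scores hint the gene aids the LPS response, high scores that it dampens it.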 Repeated entries: four replicate wells of each siRNA pool.
Target gene,TNF reporter robust z-score,outcome
ARHGEF12 (Rho guanine nucleotide exchange factor 12),1.66,inactive
ARHGEF12 (Rho guanine nucleotide exchange factor 12),2.72,inactive
ARHGEF12 (Rho guanine nucleotide exchange factor 12),1.36,inactive
ARHGEF12 (Rho guanine nucleotide exchange factor 12),2.34,inactive
IFNL2 (interferon lambda 2),0.64,inactive
IFNL2 (interferon lambda 2),0.78,inactive
IFNL2 (interferon lambda 2),0.87,inactive
IFNL2 (interferon lambda 2),0.62,inactive
QPCT (glutaminyl-peptide cyclotransferase),,inactive
QPCT (glutaminyl-peptide cyclotransferase),0.92,inactive
QPCT (glutaminyl-peptide cyclotransferase),1.28,inactive
QPCT (glutaminyl-peptide cyclotransferase),2.13,inactive
QPCT (glutaminyl-peptide cyclotransferase),2.64,inactive
MADCAM1 (mucosal vascular addressin cell adhesion molecule 1),0.79,inactive
MADCAM1 (mucosal vascular addressin cell adhesion molecule 1),1.24,inactive
MADCAM1 (mucosal vascular addressin cell adhesion molecule 1),1.58,inactive
MADCAM1 (mucosal vascular addressin cell adhesion molecule 1),-1.3,inactive
CASP1 (caspase 1),-0.15,inactive
CASP1 (caspase 1),0.15,inactive
CASP1 (caspase 1),0.74,inactive
CASP1 (caspase 1),0.02,inactive
PSMA7 (proteasome 20S subunit alpha 7),-1.85,active
PSMA7 (proteasome 20S subunit alpha 7),-1.56,active
PSMA7 (proteasome 20S subunit alpha 7),-1.01,inactive
PSMA7 (proteasome 20S subunit alpha 7),0.51,inactive
MRPL53 (mitochondrial ribosomal protein L53),2.54,inactive
MRPL53 (mitochondrial ribosomal protein L53),-0.19,inactive
MRPL53 (mitochondrial ribosomal protein L53),-1.19,inactive
MRPL53 (mitochondrial ribosomal protein L53),-1.1,inactive
"LLPH (LLP homolog, long-term synaptic facilitation factor)",2.87,active
"LLPH (LLP homolog, long-term synaptic facilitation factor)",1.9,inactive
"LLPH (LLP homolog, long-term synaptic facilitation factor)",3.16,active
"LLPH (LLP homolog, long-term synaptic facilitation factor)",1.16,inactive
DLAT (dihydrolipoamide S-acetyltransferase),1.14,inactive
DLAT (dihydrolipoamide S-acetyltransferase),-0.96,inactive
DLAT (dihydrolipoamide S-acetyltransferase),1.36,inactive
DLAT (dihydrolipoamide S-acetyltransferase),1.77,inactive
GLOD4 (glyoxalase domain containing 4),-0.17,inactive
GLOD4 (glyoxalase domain containing 4),-0.67,inactive
GLOD4 (glyoxalase domain containing 4),-1.15,inactive
GLOD4 (glyoxalase domain containing 4),0.24,inactive
IL31 (interleukin 31),0.67,inactive
IL31 (interleukin 31),1.16,inactive
IL31 (interleukin 31),1.5,inactive
IL31 (interleukin 31),1.63,inactive
"PRAG1 (PEAK1 related, kinase-activating pseudokinase 1)",1,inactive
"PRAG1 (PEAK1 related, kinase-activating pseudokinase 1)",1.4,inactive
"PRAG1 (PEAK1 related, kinase-activating pseudokinase 1)",0.88,inactive
"PRAG1 (PEAK1 related, kinase-activating pseudokinase 1)",1.39,inactive
SPSB3 (splA/ryanodine receptor domain and SOCS box containing 3),3.49,active
SPSB3 (splA/ryanodine receptor domain and SOCS box containing 3),1.74,inactive
SPSB3 (splA/ryanodine receptor domain and SOCS box containing 3),3.34,active
SPSB3 (splA/ryanodine receptor domain and SOCS box containing 3),4.93,active
DHX8 (DEAH-box helicase 8),0.74,inactive
DHX8 (DEAH-box helicase 8),1.42,inactive
DHX8 (DEAH-box helicase 8),1.35,inactive
DHX8 (DEAH-box helicase 8),0.26,inactive
PCDHB3 (protocadherin beta 3),1.28,inactive
PCDHB3 (protocadherin beta 3),-0.51,inactive
PCDHB3 (protocadherin beta 3),0.51,inactive
PCDHB3 (protocadherin beta 3),0.28,inactive
TYRP1 (tyrosinase related protein 1),0.66,inactive
TYRP1 (tyrosinase related protein 1),-0.18,inactive
TYRP1 (tyrosinase related protein 1),-0.16,inactive
TYRP1 (tyrosinase related protein 1),0.53,inactive
ATXN1 (ataxin 1),1,inactive
ATXN1 (ataxin 1),0.35,inactive
ATXN1 (ataxin 1),0.99,inactive
ATXN1 (ataxin 1),2.02,inactive
PRSS58 (serine protease 58),-1.22,inactive
PRSS58 (serine protease 58),-1.31,inactive
PRSS58 (serine protease 58),0.17,inactive
PRSS58 (serine protease 58),0.58,inactive
RAG2 (recombination activating 2),0.65,inactive
RAG2 (recombination activating 2),1,inactive
RAG2 (recombination activating 2),-1.31,inactive
RAG2 (recombination activating 2),1.66,inactive
P2RX1 (purinergic receptor P2X 1),0.87,inactive
P2RX1 (purinergic receptor P2X 1),-0.53,inactive
P2RX1 (purinergic receptor P2X 1),1.47,inactive
CD1B (CD1b molecule),-0.35,inactive
CD1B (CD1b molecule),0.47,inactive
CD1B (CD1b molecule),-0.74,inactive
CD1B (CD1b molecule),-0.45,inactive
TECPR1 (tectonin beta-propeller repeat containing 1),-0.82,inactive
TECPR1 (tectonin beta-propeller repeat containing 1),-0.36,inactive
TECPR1 (tectonin beta-propeller repeat containing 1),-0.91,inactive
TECPR1 (tectonin beta-propeller repeat containing 1),-0.17,inactive
SAPCD1 (suppressor APC domain containing 1),-0.4,inactive
SAPCD1 (suppressor APC domain containing 1),0.03,inactive
SAPCD1 (suppressor APC domain containing 1),-0.43,inactive
SAPCD1 (suppressor APC domain containing 1),-0.03,inactive
SERAC1 (serine active site containing 1),0.59,inactive
SERAC1 (serine active site containing 1),0.99,inactive
SERAC1 (serine active site containing 1),-0.56,inactive
SERAC1 (serine active site containing 1),0.72,inactive
MORF4L1 (mortality factor 4 like 1),-0.86,inactive
MORF4L1 (mortality factor 4 like 1),-1.21,inactive
MORF4L1 (mortality factor 4 like 1),-0.57,inactive
MORF4L1 (mortality factor 4 like 1),-0.23,inactive
NDUFA5 (NADH:ubiquinone oxidoreductase subunit A5),-1.84,active
NDUFA5 (NADH:ubiquinone oxidoreductase subunit A5),-1.26,inactive
NDUFA5 (NADH:ubiquinone oxidoreductase subunit A5),-0.98,inactive
NDUFA5 (NADH:ubiquinone oxidoreductase subunit A5),-0.97,inactive
ZIK1 (zinc finger protein interacting with K protein 1),2.49,inactive
ZIK1 (zinc finger protein interacting with K protein 1),2.61,inactive
ZIK1 (zinc finger protein interacting with K protein 1),3.34,active
ZIK1 (zinc finger protein interacting with K protein 1),8.87,active
HS3ST3B1 (heparan sulfate-glucosamine 3-sulfotransferase 3B1),-0.82,inactive
HS3ST3B1 (heparan sulfate-glucosamine 3-sulfotransferase 3B1),-0.28,inactive
HS3ST3B1 (heparan sulfate-glucosamine 3-sulfotransferase 3B1),-0.42,inactive
HS3ST3B1 (heparan sulfate-glucosamine 3-sulfotransferase 3B1),-0.98,inactive
TKTL2 (transketolase like 2),-1.08,inactive
TKTL2 (transketolase like 2),-0.65,inactive
TKTL2 (transketolase like 2),-1.47,inactive
TKTL2 (transketolase like 2),-0.9,inactive
HOXA13 (homeobox A13),-0.71,inactive
HOXA13 (homeobox A13),-0.26,inactive
HOXA13 (homeobox A13),-0.34,inactive
HOXA13 (homeobox A13),0.04,inactive
TRPM3,0.15,inactive
TRPM3,3.25,active
TRPM3,3.71,active
TRPM3,1.06,inactive
SPOP (speckle type BTB/POZ protein),-1.59,active
SPOP (speckle type BTB/POZ protein),-1.64,active
SPOP (speckle type BTB/POZ protein),-1.65,active
SPOP (speckle type BTB/POZ protein),-1.55,active
DEPDC7 (DEP domain containing 7),-0.01,inactive
DEPDC7 (DEP domain containing 7),0.54,inactive
DEPDC7 (DEP domain containing 7),0.1,inactive
DEPDC7 (DEP domain containing 7),-0.08,inactive
MAP7 (microtubule associated protein 7),3.2,active
MAP7 (microtubule associated protein 7),0.47,inactive
MAP7 (microtubule associated protein 7),-0.89,inactive
MAP7 (microtubule associated protein 7),-0.76,inactive
DCXR (dicarbonyl and L-xylulose reductase),1.63,inactive
DCXR (dicarbonyl and L-xylulose reductase),0.7,inactive
DCXR (dicarbonyl and L-xylulose reductase),1.03,inactive
DCXR (dicarbonyl and L-xylulose reductase),1.2,inactive

In a second layout: 10 of the entries above.
| Target gene | TNF reporter robust z-score | outcome |
| --- | --- | --- |
| TRPM3 | 0.15 | inactive |
| TRPM3 | 3.25 | active |
| TRPM3 | 3.71 | active |
| TRPM3 | 1.06 | inactive |
| SPOP (speckle type BTB/POZ protein) | -1.59 | active |
| SPOP (speckle type BTB/POZ protein) | -1.64 | active |
| SPOP (speckle type BTB/POZ protein) | -1.65 | active |
| SPOP (speckle type BTB/POZ protein) | -1.55 | active |
| DEPDC7 (DEP domain containing 7) | -0.01 | inactive |
| DEPDC7 (DEP domain containing 7) | 0.54 | inactive |
